Measured values taken from patent US12310947B2, “Methods and compositions for unsilencing imprinted genes” (priority 2019, dated 2025).

Test system: paternal Ube3a-YFP
Assay: In vivo unsilencing of paternal Ube3a-YFP, brain immunohistochemistry after IP injection in Ube3a^m+/pYFP mice
Set-up: species or system mouse
Details: 2 mg/kg IP at P11, brain at P13, Ube3a^m+/pYFP mice
Method: Saline treated wild type and Ube3a^m+/pYFP mice served as immunohistochemistry controls showing the absence of GFP-immunoreactivity in wild type mice (FIG. 14B) and expected paternal UBE3A-YFP protein expression in glial cells and in newly generated immature neurons in Ube3a^m+/pYFP mice (FIG. 14C; Judson et al. J Comp Neurol 2014 522(8):1874-96), respectively.
P13 mice were deeply anesthetized with euthasol (100 mg/kg, i.p.) prior to transcardial perfusion with phosphate-buffered saline (PBS), pH 7.4, followed by phosphate-buffered 4% paraformaldehyde, pH 7.4. Perfused brains were postfixed overnight and cryoprotected with 30% sucrose in PBS, pH 7.4, for two days. Cryoprotected brains were frozen on dry ice and cut into 40 μm-thick sections with a sliding microtome (Thermo Scientific, Kalamazoo, MI, USA). Sections were stored in a cryopreservative solution (by volume: 45% PBS, 30% ethylene glycol, 25% glycerol) at −20° C. until they were processed for free-floating immunohistochemistry (IHC). For IHC, sections were rinsed several times in PBS before blocking in PBS plus 5% normal goat serum and 0.2% Triton-X-100 (NGST) for 1 hour at room temperature. Sections were incubated with rabbit anti-GFP (1:1000, NB 600308, Novus Biologicals) and mouse anti-NeuN (1:500, MAB 377, Millipore) primary antibodies diluted in NGST for 48 hours at 4° C. […]

Compound: C[C@H](C(=O)Nc1cc(C2CC2)[nH]n1)c1ccc(N2CCCC2=O)cc1 [PHA533533]
- costaining of GFP and neuronal marker NeuN, hippocampal CA3 region: near-complete co-localization
- paternal Ube3a-YFP in brain (GFP immunohistochemistry): successfully upregulated paternal Ube3a-YFP throughout the brain
